Measurements taken from patent US20030124590.

Chains of the proteins cited; added tags and fusions are not shown. Lines headed by an entry give the natural chain unless they say otherwise; changes in a name come on top.
UniProt Q8VIP2: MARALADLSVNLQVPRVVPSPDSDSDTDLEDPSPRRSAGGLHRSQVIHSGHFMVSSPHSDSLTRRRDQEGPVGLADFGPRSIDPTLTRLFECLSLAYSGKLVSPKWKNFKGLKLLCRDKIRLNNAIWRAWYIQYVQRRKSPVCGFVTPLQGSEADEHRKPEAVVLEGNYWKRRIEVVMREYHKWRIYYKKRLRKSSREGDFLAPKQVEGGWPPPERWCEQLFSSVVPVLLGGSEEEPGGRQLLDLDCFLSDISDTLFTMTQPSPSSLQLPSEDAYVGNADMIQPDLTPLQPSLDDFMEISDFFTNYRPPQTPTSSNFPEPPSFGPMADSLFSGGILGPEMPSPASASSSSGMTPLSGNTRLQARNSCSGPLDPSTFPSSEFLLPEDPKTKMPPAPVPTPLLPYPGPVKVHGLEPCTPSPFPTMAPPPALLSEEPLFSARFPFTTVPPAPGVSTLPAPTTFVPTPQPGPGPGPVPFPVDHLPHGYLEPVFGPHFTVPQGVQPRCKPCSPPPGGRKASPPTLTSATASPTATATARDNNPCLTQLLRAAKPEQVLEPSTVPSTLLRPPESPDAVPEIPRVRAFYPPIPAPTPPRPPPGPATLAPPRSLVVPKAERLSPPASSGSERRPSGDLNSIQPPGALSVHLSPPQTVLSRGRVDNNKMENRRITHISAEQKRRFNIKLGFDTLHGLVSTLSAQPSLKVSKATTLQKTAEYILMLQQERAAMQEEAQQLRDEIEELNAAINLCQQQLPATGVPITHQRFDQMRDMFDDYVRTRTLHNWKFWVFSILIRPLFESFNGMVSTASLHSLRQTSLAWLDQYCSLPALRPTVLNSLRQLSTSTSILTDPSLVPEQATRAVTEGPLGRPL

Tests used:
[1] = molecular target: ChREBP (WBSCR14), endogenous in liver nuclear extract (Rattus norvegicus) (UniProt Q8VIP2); assay: EMSA; settings: protein in an extract, label: 32P
[2] = test system: USF (upstream stimulatory factor) (Rattus norvegicus); assay: EMSA; settings: USF complex identified by antibody supershift; protein in an extract; label: 32P
[3] = complex formation significantly impeded, variant of LPK ChRE WT

| Sequence | binding result ([1]; protein source per Example 2) | binding result [1, 3] | also measured |
| --- | --- | --- | --- |
| CTTCCTGCATGTGCCACAGGCGTGTCACCCTC (double strand) [FAS] | binds |  |  |
| GGGCGCACGTGGCACTCACGTGGTTCC (double strand) [LPK ChRE M5] |  |  | binding result ([1]; perfect palindromic E-boxes, enhanced complex vs WT, variant of LPK ChRE WT): binds |
| GACCTGTCCCTGCTCACAGCTGGGGGCAAATGTCTCCAGGAGAGCAAAGCC (double strand) [InsZ] | binds |  |  |
| GATCTGATGGGGGGCGGGGAGGAGCCCGGGATC (double strand) [ACL] | binds |  |  |
| GGGCGCAAGGGGCACTCCCTTGGTTCC (double strand) [LPK ChRE M3] |  | binds more weakly |  |
| GGGCGAACGGGGCACTCCCGTTGTTCC (double strand) [LPK ChRE M1] |  | binds more weakly |  |
| GGGCGCACGGTGCACTACCGTGGTTCC (double strand) [LPK ChRE M6] |  | binds more weakly |  |
| GGGCGCACTGGGCACTCCAGTGGTTCC (double strand) [LPK ChRE M4] |  | binds more weakly |  |
| GGGCGCACGGGGCACTCCCGTGGTTC (double strand) [L-PK ChRE (Table 4)] |  |  | binding result ([1]; protein source per Example 2 (nuclear extract)): binds |
| AGTTCTCACGTGGTGGCCCTGTGCTTGG (double strand) [S14] | binds |  |  |
| CAAATGCCATGTGAAAACCCATAGCCTG (double strand) | binds |  |  |
| GGGCGCACGGGGCACTCCCGTGGTTCC (double strand) [LPK ChRE WT] |  |  | binding result [2]: binds; binding result ([1]; liver nuclear extract, enriched 2-3 fold by high carbohydrate diet): binds |
| GGGCGCCCGGGGCACTCCCGGGGTTCC (double strand) [LPK ChRE M2] |  | binds more weakly |  |

At least one result comes from cells or an extract, where the contact may be indirect. For some assays here: Weaker means in comparison with the reference protein, sequence or condition of that experiment. For some assays here: The exact form of at least one protein or probe is not confirmed.
